# No constants are given. Whether binding was seen depends on the method and setting. In cells and extracts the contact can be indirect. Binding can be weak; no strength is given. Where a sequence is shown, tags or fusion partners need not be part of it.
# Protein sequences, listed by entry. Tags and fused reporters are not part of them. Lines headed by an entry give the natural chain unless they say otherwise; changes in a name come on top.
# UniProt O14920: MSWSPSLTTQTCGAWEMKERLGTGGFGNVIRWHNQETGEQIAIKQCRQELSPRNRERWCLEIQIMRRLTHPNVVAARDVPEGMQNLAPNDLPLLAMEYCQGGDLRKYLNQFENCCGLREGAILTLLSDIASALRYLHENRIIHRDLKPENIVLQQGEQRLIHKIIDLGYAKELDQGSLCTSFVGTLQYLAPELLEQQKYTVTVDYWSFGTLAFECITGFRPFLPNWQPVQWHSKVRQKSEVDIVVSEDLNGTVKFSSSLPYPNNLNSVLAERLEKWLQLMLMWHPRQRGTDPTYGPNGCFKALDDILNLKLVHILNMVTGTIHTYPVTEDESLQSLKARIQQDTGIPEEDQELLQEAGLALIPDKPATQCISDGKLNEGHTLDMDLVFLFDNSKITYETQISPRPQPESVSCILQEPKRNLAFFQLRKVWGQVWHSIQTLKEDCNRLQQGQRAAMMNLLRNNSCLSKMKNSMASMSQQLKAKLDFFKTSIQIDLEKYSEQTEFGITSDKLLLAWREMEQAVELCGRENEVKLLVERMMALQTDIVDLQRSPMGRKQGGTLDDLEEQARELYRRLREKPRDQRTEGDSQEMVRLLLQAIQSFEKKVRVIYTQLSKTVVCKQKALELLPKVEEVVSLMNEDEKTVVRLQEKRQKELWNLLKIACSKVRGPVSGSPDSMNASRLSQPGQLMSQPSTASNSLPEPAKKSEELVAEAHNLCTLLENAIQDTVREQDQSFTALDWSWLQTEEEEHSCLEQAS
# Target: T1, Myc-PHLPP2 (human) (UniProt Q6ZVD8)
# T1 sequence: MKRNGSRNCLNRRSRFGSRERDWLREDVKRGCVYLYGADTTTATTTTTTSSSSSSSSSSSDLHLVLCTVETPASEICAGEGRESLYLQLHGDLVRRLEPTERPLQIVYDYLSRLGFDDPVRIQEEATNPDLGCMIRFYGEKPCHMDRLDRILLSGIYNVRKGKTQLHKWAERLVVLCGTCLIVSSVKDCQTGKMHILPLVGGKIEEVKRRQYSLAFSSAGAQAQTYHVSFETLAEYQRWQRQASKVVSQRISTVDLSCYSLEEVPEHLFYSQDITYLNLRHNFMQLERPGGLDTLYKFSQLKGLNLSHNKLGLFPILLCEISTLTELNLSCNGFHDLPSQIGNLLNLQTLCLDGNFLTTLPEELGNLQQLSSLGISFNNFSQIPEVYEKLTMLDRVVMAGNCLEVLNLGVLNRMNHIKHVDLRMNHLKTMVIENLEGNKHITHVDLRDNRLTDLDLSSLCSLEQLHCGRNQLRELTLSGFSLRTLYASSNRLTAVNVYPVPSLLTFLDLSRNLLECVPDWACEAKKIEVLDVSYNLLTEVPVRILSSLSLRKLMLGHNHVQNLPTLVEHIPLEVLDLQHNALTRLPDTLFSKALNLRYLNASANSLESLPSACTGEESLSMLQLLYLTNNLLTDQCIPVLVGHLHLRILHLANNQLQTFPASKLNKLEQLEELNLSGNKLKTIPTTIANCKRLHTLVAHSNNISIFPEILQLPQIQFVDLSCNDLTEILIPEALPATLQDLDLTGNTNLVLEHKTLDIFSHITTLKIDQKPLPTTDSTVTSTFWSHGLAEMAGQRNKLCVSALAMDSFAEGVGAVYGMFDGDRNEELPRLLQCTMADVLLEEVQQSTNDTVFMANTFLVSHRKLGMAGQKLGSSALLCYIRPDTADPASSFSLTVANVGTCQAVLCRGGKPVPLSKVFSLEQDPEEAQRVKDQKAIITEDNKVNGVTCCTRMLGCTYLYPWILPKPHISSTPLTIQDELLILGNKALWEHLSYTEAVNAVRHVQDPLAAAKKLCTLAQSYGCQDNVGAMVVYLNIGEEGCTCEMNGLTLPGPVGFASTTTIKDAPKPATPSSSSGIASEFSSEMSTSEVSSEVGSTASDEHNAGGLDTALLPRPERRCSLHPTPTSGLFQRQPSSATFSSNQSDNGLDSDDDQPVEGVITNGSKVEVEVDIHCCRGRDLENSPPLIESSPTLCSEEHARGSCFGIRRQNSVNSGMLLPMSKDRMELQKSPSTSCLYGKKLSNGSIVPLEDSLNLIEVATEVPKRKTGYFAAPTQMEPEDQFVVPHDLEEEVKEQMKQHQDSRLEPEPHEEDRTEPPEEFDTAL
# Assay: co-IP; overexpressed proteins co-expressed in 293T cells, immunoprecipitation and immunoblot; in Fig. 4B increasing amounts of PHLPP2 or PHLPP2-PI
substance,measurement,value
FLAG-tagged IKKβ kinase-dead (KD) (from UniProt O14920),binding,binds
